According to publication PMC6772013:
Results are given in words; binding and its absence hold for the method and conditions named. In cells and extracts the contact can be indirect. Some entries that bind do so weakly or less than the wild type. For some of these results: Sequences can lack the tags named with a protein.

Amino acid sequences for entries named in this document (tags omitted).
UniProt P89216: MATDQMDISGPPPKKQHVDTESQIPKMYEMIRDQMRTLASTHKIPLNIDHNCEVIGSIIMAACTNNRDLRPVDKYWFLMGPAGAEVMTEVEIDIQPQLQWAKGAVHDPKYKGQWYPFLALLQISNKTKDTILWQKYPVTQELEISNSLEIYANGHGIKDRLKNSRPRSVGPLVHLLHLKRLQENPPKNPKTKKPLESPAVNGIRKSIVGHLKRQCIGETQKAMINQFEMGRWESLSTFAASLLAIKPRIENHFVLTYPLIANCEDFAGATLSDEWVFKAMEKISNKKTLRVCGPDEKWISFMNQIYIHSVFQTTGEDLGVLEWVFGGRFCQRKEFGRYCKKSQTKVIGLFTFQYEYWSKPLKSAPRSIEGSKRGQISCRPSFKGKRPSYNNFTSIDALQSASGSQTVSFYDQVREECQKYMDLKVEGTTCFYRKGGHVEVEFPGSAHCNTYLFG

Experiments:
Experiment in all cases: co-IP; lysates of 293T cells transfected with FLAG-tagged MxA constructs and infected 24 h later with THOV (MOI 10, 24 h); lysis in 50 mM Tris pH 8.0, 150 mM NaCl, 1 mM EDTA, 0.5% Nonidet P-40; anti-FLAG-M2 affinity gel, 2 h at 4 °C; western blot for MxA and THOV NP
[1] = target: MxA super-restrictor variant TFAMC, FLAG-tagged (human) (UniProt P20591)
[2] = target: MxA super-restrictor variant QFAYS, FLAG-tagged (human) (UniProt P20591)
[3] = target: MxA super-restrictor variant VFRSV, FLAG-tagged (human) (UniProt P20591)
[4] = target: T1, wild-type human MxA, FLAG-tagged (human) (UniProt P20591)
T1 sequence: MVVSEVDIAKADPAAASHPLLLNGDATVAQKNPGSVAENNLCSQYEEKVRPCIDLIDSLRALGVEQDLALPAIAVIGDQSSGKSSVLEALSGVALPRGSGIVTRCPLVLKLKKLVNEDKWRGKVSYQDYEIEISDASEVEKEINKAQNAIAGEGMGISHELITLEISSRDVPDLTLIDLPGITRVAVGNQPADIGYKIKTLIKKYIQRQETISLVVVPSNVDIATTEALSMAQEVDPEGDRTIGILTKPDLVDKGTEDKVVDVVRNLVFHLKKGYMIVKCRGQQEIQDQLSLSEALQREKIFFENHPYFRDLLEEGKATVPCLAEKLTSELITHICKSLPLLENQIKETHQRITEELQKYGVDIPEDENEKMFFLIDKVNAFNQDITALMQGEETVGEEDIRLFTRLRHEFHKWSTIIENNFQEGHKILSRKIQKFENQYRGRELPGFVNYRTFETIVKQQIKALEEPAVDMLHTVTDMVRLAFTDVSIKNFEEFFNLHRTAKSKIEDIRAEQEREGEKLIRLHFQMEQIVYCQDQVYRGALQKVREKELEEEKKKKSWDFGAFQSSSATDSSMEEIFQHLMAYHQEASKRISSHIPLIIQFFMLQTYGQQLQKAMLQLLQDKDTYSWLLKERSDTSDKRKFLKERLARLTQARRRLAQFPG

Measured: binding

Thogotovirus nucleoprotein (from UniProt P89216 1-454)
binds: all assays above
